# Values quoted from earlier work in patent US20260083754A1, “CORTICOSTEROID CONTAINING ORALLY DISINTEGRATING TABLET COMPOSITIONS FOR EOSINOPHILIC ESOPHAGITIS” (Ellodi Pharmaceuticals, L.P., priority 2013, published 2026).
# At least one compound was matched to its structure with a doubt left.
# Test system: adolescent and adult patients with active EoE
# Details: 1 mg twice daily
smiles,measurement,setting,value
CCCC1O[C@@H]2C[C@H]3[C@@H]4CCC5=CC(=O)C=C[C@]5(C)[C@H]4[C@@H](O)C[C@]3(C)[C@]2(C(=O)CO)O1 (some centres unmarked) [budesonide],Dysphagia scores,"15 days, 5.61 vs 2.22, P<0.0001",5.61
same,"number of eosinophils in the esophageal epithelium, after treatment","after 15-day course, P<0.0001",5.5 eosinophils/hpf
same,"number of eosinophils in the esophageal epithelium, before treatment",pretreatment,68.2 eosinophils/hpf
same,"White exudates and red furrows, endoscopy examination",15-day course,reversed
same,histologic and clinical remission,15-day course,highly effective
